In PubChem BioAssay (EPA / NIEHS):
Where “and” joins values, the source holds several entries; their conditions need not be identical. Equal values may be shown once. The shares of active, inactive and inconclusive entries below differ from those in the screen. For part of these data: Potencies of inconclusive entries are doubtful fits and often do not repeat. Where a structure was tested more than once in an assay, its records may differ in their call. Calls of active or inactive are those of the source. Rule for the calls: active = hit-call score of the fitted dose curve at least 0.9, where 1 is the maximum; inconclusive = response in the unintended direction; inactive = score below 0.9.

By UniProt entry, the sequences of proteins in these tests, tags left out. Where a name states a change or a piece, a line headed by the entry shows the natural chain unless it says otherwise.
UniProt P62508: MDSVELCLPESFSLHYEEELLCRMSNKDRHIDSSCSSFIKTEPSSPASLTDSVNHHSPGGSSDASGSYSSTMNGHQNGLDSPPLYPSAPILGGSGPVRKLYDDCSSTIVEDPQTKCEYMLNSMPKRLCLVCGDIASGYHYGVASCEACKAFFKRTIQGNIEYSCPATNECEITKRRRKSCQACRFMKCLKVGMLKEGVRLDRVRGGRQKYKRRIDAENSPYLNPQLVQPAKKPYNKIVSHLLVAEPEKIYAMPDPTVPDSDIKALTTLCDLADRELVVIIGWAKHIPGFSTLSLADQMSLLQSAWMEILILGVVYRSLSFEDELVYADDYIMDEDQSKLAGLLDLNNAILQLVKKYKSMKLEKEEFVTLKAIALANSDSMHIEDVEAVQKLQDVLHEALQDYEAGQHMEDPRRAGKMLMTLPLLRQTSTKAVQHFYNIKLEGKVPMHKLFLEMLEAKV
UniProt P15204: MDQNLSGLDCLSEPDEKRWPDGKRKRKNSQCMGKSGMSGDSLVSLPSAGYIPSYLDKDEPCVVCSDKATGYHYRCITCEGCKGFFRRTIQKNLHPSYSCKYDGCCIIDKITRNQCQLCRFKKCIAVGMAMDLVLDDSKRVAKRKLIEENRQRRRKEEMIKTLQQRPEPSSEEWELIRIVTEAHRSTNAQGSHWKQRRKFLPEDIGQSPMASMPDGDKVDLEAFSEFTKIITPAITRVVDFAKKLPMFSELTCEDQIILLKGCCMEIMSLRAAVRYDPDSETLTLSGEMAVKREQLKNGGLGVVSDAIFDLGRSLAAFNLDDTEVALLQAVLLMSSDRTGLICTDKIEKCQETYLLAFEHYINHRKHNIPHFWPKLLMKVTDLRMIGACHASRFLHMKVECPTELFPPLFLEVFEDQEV
UniProt O97775: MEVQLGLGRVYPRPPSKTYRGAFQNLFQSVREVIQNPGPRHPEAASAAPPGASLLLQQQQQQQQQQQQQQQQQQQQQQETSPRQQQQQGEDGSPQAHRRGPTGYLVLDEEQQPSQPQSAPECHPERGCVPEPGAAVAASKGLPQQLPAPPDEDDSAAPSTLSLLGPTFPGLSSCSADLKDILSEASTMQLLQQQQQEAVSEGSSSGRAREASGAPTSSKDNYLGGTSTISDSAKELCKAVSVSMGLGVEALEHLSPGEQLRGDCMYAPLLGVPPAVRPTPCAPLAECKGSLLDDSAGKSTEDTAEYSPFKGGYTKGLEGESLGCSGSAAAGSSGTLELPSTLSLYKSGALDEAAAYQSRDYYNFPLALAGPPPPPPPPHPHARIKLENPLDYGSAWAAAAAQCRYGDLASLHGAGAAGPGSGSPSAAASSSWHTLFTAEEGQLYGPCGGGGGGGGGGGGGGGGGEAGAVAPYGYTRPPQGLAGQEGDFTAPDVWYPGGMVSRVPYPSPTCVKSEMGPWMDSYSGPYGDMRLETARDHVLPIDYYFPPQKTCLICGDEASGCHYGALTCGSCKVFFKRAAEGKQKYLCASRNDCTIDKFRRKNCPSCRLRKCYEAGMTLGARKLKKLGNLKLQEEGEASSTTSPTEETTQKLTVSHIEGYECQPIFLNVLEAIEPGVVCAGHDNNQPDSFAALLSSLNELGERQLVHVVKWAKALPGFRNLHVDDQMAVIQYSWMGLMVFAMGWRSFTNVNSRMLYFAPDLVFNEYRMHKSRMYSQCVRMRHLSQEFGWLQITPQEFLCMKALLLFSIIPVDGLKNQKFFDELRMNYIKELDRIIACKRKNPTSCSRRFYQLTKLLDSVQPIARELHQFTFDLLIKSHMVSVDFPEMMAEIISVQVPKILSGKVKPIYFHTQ
UniProt P49137, whole entry, looked up: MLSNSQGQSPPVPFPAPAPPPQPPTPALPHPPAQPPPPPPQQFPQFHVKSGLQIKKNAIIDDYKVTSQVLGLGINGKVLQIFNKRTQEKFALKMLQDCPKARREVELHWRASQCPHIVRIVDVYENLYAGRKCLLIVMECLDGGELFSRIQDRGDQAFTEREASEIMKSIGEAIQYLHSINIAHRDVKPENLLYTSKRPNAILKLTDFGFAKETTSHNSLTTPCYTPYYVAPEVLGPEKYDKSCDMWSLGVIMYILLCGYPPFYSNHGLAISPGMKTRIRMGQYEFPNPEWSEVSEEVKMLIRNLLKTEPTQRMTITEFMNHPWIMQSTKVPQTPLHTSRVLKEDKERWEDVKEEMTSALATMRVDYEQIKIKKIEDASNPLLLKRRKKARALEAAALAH
UniProt P43378: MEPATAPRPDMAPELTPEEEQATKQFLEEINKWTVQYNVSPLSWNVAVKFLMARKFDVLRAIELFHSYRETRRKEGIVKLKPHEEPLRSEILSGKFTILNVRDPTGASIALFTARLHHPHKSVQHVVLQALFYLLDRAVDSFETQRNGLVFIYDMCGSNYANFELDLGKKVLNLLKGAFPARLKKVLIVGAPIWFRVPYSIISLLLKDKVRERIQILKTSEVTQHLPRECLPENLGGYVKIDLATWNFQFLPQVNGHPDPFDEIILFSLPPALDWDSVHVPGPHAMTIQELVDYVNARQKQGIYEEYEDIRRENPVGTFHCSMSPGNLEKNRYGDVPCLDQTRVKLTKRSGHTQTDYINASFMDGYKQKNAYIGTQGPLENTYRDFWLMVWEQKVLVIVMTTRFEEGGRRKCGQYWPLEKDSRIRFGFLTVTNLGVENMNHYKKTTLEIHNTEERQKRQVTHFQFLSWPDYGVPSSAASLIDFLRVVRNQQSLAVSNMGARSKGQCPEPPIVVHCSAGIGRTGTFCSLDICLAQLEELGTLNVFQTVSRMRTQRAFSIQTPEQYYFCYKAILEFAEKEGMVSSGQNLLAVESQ
UniProt P31749: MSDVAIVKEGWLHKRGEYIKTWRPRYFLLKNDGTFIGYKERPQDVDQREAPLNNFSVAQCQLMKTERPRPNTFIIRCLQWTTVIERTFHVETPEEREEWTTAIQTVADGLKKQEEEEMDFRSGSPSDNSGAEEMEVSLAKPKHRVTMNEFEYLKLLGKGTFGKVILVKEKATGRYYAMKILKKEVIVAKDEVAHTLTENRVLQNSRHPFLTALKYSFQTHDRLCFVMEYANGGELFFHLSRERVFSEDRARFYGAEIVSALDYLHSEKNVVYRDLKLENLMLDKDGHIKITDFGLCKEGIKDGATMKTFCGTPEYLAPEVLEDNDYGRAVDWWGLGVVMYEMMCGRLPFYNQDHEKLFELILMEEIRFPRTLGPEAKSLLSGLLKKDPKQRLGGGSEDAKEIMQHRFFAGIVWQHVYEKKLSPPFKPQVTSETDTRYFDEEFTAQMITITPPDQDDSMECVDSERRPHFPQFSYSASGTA
UniProt P31751: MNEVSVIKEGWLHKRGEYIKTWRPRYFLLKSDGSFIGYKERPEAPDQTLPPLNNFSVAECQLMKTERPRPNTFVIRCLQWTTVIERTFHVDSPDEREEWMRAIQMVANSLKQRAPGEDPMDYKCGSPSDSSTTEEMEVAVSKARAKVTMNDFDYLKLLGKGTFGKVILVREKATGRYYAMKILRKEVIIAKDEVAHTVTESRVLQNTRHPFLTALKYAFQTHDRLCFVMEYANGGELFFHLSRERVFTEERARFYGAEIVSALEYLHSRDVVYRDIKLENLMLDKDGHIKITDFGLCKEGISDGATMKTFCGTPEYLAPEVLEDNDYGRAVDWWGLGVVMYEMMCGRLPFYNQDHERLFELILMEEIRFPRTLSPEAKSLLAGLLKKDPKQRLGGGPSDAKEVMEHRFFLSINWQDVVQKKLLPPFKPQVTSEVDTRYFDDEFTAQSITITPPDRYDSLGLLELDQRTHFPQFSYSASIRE
UniProt P18031: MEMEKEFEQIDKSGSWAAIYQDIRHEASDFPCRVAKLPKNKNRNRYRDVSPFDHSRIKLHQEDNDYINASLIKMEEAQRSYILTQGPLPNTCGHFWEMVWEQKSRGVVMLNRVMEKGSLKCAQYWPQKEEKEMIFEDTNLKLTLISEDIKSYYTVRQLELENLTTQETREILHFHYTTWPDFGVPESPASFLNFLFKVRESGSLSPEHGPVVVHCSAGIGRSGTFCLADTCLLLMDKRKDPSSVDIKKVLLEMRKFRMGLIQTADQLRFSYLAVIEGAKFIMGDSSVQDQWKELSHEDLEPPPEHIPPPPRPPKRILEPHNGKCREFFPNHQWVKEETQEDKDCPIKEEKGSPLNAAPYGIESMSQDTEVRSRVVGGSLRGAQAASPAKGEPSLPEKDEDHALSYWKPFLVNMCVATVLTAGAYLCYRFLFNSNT
UniProt P05979, whole entry, looked up: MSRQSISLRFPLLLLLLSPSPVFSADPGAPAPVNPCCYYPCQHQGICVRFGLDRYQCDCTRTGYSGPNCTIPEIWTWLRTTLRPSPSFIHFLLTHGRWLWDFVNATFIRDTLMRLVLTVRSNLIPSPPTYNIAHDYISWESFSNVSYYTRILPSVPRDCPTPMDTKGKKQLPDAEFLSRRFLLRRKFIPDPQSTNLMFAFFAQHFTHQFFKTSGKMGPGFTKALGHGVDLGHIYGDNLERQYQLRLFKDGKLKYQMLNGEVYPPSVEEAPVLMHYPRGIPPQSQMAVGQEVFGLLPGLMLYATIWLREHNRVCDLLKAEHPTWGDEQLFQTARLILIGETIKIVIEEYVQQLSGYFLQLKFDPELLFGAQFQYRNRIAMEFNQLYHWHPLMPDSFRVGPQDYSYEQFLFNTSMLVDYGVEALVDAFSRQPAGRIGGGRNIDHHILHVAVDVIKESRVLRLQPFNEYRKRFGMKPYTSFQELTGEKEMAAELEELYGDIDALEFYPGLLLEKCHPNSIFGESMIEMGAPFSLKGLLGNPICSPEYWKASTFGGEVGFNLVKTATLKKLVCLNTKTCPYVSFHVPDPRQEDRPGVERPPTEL
UniProt Q07869: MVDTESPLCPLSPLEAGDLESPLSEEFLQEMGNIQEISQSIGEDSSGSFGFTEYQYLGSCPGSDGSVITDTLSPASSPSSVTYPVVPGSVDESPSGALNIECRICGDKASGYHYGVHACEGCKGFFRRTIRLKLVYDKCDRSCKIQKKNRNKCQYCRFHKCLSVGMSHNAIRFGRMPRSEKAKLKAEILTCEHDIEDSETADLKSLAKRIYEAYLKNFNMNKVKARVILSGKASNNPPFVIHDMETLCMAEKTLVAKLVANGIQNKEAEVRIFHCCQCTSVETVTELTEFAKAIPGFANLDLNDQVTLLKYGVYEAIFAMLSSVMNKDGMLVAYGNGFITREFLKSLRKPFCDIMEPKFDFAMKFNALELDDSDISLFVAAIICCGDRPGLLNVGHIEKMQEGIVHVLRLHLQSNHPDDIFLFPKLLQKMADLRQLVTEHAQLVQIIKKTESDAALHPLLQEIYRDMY
UniProt P04386, whole entry, looked up: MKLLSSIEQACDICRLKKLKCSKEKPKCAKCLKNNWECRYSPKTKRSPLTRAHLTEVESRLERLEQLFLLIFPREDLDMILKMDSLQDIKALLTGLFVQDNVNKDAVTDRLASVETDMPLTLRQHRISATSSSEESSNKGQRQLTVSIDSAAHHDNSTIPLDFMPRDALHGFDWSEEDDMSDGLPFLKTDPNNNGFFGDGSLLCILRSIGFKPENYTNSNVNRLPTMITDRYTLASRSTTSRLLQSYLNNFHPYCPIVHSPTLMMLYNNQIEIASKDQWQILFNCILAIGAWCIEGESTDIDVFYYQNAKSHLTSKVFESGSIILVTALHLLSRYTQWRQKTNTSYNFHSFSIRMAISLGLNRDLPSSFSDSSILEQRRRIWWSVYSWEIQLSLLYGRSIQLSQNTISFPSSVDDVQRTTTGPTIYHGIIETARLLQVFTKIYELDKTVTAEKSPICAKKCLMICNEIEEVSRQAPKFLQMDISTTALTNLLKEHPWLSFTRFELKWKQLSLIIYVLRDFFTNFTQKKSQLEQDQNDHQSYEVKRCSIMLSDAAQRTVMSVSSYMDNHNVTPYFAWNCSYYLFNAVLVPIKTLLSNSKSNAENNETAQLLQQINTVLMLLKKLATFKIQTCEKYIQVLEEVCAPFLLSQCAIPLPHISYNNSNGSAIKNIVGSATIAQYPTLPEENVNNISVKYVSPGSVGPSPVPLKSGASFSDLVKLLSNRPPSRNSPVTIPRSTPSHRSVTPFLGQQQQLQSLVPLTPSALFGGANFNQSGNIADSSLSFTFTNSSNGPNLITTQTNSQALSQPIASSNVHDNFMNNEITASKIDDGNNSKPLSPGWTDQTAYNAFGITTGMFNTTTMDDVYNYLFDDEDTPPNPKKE

How the values were obtained:
[1] = biological target: Estrogen-related receptor gamma (Homo sapiens) (UniProt P62508); assay: ATG_ERRg_TRANS: Attagene TRANS-FACTORIAL HepG2 Assay for human Estrogen-Related Receptor gamma (ERRg) (AID 2282977); conditions: HepG2 Attagene TRANS reporter, ERRg transactivation;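 note: hits increase reporter signal over DMSO so potencies reflect activators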
In short: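 Exogenous NR-Gal4 chimera activity was assessed in HepG2 cells bearing transfected GAL4-UAS reporters. After 24 h dosing, total RNA underwent RT-PCR, fluorescent primer extension and HpaI digestion before capillary electrophoresis, with gain of signal scored against DMSO.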

[2] = tested on: turtle Estrogen Receptor (ERa), gene 101933533; assay: ATG_trERa_XSP2: Attagene TRANS-FACTORIAL Multi-Species (XSP2) HepG2 Assay for turtle Estrogen Receptor (ERa) (AID 2283812);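 note: actives raise reporter signal above DMSO so AC50 reflects agonist activity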
In short: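 Readout is reporter mRNA quantified by RT-PCR with capillary electrophoresis after 24 h compound exposure, increase relative to DMSO. Uses transiently transfected human HepG2 liver cells carrying a chimeric turtle ERa-Gal4 receptor driving GAL4-UAS reporters.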

[3] = biological target: frog Thyroid hormone Receptor alpha (TRa), thra-a (gene 397942) (UniProt P15204); assay: ATG_frTRa_XSP2: Attagene TRANS-FACTORIAL Multi-Species (XSP2) HepG2 Assay for frog Thyroid hormone Receptor alpha (TRa) (AID 2283839);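 note: AC50 reflects induction of frog TRa-driven reporter mRNA above DMSO baseline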
In short: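 Reporter transcripts were measured by RT-PCR with capillary electrophoresis after 24 h dosing of HepG2 carrying transiently transfected multi-reporter units, including a chimeric frog TRa-GAL4 construct. Activity was taken as increase over DMSO vehicle.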

[4] = biological target: chimpanzee Androgen Receptor (AR), AR (gene 747460) (UniProt O97775); assay: NVS_NR_cAR: NovaScreen (NVS) Nuclear Receptor Binding Assay for chimpanzee Androgen Receptor (AR) (AID 2283346);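 note: radioligand displacement from AR measured by scintillation counting in a cell-free assay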
In short: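 Cell-free radioligand displacement using receptor protein extracted from Sf9/Sf21 cells; bound radioligand measured by scintillation counting 72 hours after chemical dosing. Loss of signal versus DMSO baseline indicates binding; primary screen single-concentration in duplicate at 25 uM, actives followed in concentration series.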

[5] = biological target: human MAP Kinase-Activated Protein Kinase 2 (MAPKAPK2), MAPKAPK2 (gene 9261) (UniProt P49137); assay: NVS_ENZ_hMAPKAPK2: NovaScreen (NVS) Enzymatic Assay for human MAP Kinase-Activated Protein Kinase 2 (MAPKAPK2) (AID 2283178)
In short: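 Chemicals screened in duplicate at 25 uM, then to 50 uM top concentration in concentration-response, against recombinant human MAPKAPK2; substrate conversion read 1 hr post-dosing by fluorescence after electrophoretic mobility-shift separation, loss-of-signal relative to DMSO.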

[6] = biological target: human Protein Tyrosine Phosphatase Non-receptor Type 9 (PTPN9), PTPN9 (gene 5780) (UniProt P43378); assay: NVS_ENZ_hPTPN9: NovaScreen (NVS) Enzymatic Assay for human Protein Tyrosine Phosphatase Non-receptor Type 9 (PTPN9) (AID 2283209)
In short: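 Sf9-expressed enzyme in a cell-free assay, fluorescence read 1.33 h after dosing with mobility-shift separation of substrate and product. Tested at 25 uM in duplicate, then up to 50 uM; signal loss versus DMSO.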

[7] = Tanguay_ZF_120hpf_SOMI_legacy: (Legacy) Oregon State University Tanguay Lab 120 Hour Post-fertilization zebrafish Assay for Somite Malformation (AID 2283647)
In short: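 Binary somite-defect scoring at 120 hpf, omitted for embryos that died, in wild-type (Tropical 5D) zebrafish with chorion removed by pronase at 4 hpf; static exposure began 6 hpf, single embryos per well, 28C, 0.64% DMSO; fitted positive versus DMSO.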

[8] = biological target: human AKT serine/threonine Kinase 1 (AKT1), AKT1 (gene 207) (UniProt P31749); assay: NVS_ENZ_hAKT1: NovaScreen (NVS) Enzymatic Assay for human AKT serine/threonine Kinase 1 (AKT1) (AID 2283138)
In short: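 A biochemical assay with recombinant enzyme and specific substrate, read by fluorescence intensity with mobility-shift separation 1 hour after dosing. Actives from 25 uM duplicate screening were titrated up to 50 uM against DMSO baseline.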

[9] = biological target: human AKT serine/threonine Kinase 2 (AKT2), AKT2 (gene 208) (UniProt P31751); assay: NVS_ENZ_hAKT2: NovaScreen (NVS) Enzymatic Assay for human AKT serine/threonine Kinase 2 (AKT2) (AID 2283141)
In short: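 Cell-free fluorescence/electrophoretic mobility shift readout of recombinant human AKT2 activity, 1 h after chemical dosing. Duplicate primary screen at 25 uM, then singleton concentration-response up to 50 uM; loss of signal versus DMSO baseline.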

[10] = biological target: human Protein Tyrosine Phosphatase Non-receptor Type 1 (PTPN1), PTPN1 (gene 5770) (UniProt P18031); assay: NVS_ENZ_hPTPN1: NovaScreen (NVS) Enzymatic Assay for human Protein Tyrosine Phosphatase Non-receptor Type 1 (PTPN1) (AID 2283201)
In short: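 Chemicals were first tested in duplicate at 25 uM, and those passing threshold went on to singleton concentration series topping at 50 uM. Recombinant enzyme, specific substrate, product separated by mobility shift, fluorescence read at 1.33 h; activity loss relative to DMSO.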

[11] = biological target: human SRC Proto-Oncogene, Non-receptor Tyrosine Kinase (SRC), SRC (gene 6714) (UniProt P12931); assay: NVS_ENZ_hSRC: NovaScreen (NVS) Enzymatic Assay for human SRC Proto-Oncogene, Non-receptor Tyrosine Kinase (SRC) (AID 2283223)
In short: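 Compounds passing 30% inhibition at 25 uM (duplicate) were titrated to a top concentration of 50 uM. Enzyme activity read by fluorescence with mobility-shift substrate/product separation after 1 h; DMSO baseline.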

[12] = biological target: sheep Cyclooxygenase-1 (Cox1), PTGS1 (gene 443551) (UniProt P05979); assay: NVS_ENZ_oCOX1: NovaScreen (NVS) Enzymatic Assay for sheep Cyclooxygenase-1 (Cox1) (AID 2283239);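 note: actives reduce cyclooxygenase activity so potencies are for inhibitors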
In short: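 Colorimetric enzyme readout using sheep seminal-vesicle cyclooxygenase-1, measured 0.66 h post-dosing. Single-concentration duplicates at 25 uM first, then concentration series for actives, with DMSO as baseline and plate controls.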

[13] = biological target: human Peroxisome Proliferator-activated Receptor alpha (PPARa), PPARA (gene 5465) (UniProt Q07869); assay: NVS_NR_hPPARa: NovaScreen (NVS) Nuclear Receptor Binding Assay for human Peroxisome Proliferator-activated Receptor alpha (PPARa) (AID 2283359);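 note: activity means loss of TR-FRET signal versus DMSO baseline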
In short: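 One-hour incubation, cell-free extracted protein, TR-FRET binding readout; signal loss vs DMSO scored. Screen: 25 uM duplicates, confirmatory dose series for actives.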

[14] = STM_H9_NormalizedViability: Cytotoxicity Assessment at 120 hours in the Stemina devTOX quickPredict H9 human embryonic stem cell (hESC)-based Assay (AID 2283784)
In short: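 Here, H9 cells received test compound with daily medium renewal. Each plate included methotrexate references (1uM, 5 nM), 0.1% DMSO and media blanks; CellTiter-Fluor RFU was normalized to DMSO.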

[15] = CCTE_Mundy_HCI_Cortical_NOG_NeuronCount: CCTE's Neurite Outgrowth Assay in rat cortical cells for Neuron Count, Mundy Lab (AID 2284236);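 note: neurons counted by imaging betaIII-tubulin and Hoechst stained cortical cells; cells exposed to compound for about 48 hours before fixation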
In short: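 Read-out: neuron number by high-content imaging of betaIII-tubulin (Alexa Fluor-488) and Hoechst-labelled rat primary cortical cells.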

[16] = CCTE_Mundy_HCI_Cortical_Synap_Neur_Matur_NeuronCount: CCTE's Synaptogenesis and Neurite Maturation Assay in rat cortical cells for Neuron Count, Mundy Lab (AID 2284242);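 note: hits reduce neuron count versus DMSO baseline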
In short: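 Measured at DIV 12: fluorescently labelled neurons (Hoechst nuclei, MAP2) in rat primary cortical cultures, counted by high-content imaging. AraC suppressed glia from DIV 5; DMSO served as negative control.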

[17] = CCTE_Shafer_MEA_acute_LDH: CCTE's Lactate Dehydrogenase Assay for Cytotoxicity in the Neural Acute Assay, Shafer Lab (AID 2284086);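 note: active means LDH release rises above DMSO vehicle level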
In short: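 Cytotoxicity readout: spectrophotometric LDH activity in supernatant of rat primary cortical neurons, post-plating day 13 or 15, sampled after 40 min compound exposure; signal gain relative to DMSO baseline.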

[18] = Tanguay_ZF_120hpf_AXIS_legacy: (Legacy) Oregon State University Tanguay Lab 120 Hour Post-fertilization zebrafish Assay for Body Axis Malformation (AID 2283635);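 note: potency for an increased fraction of larvae scored with body axis malformation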
In short: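 Binary scoring of axis defects at 120 hpf under brightfield, fitted positive versus DMSO. Tropical 5D embryos, chorion removed by pronase at 4 hpf, were singly exposed in sealed, dark plates at 28C from 6 hpf; DMSO 0.64% final.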

[19] = biological target: GAL4 Transcription Factor (Internal Marker), GAL4 (gene 855828) (UniProt P04386); assay: ATG_GAL4_XSP2: Attagene TRANS-FACTORIAL Multi-Species (XSP2) HepG2 Assay for GAL4 Transcription Factor (Internal Marker) (AID 2283814);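 note: GAL4 reporter mRNA background control in MRTU transfected cells not a receptor target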
In short: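 Background-control readout: gain-of-signal fitted against DMSO. After 24 h exposure of transfected HepG2 (MRTU, GAL4-UAS reporters; 3 nM 6-alpha-fluorotestosterone, 1.5 nM norgestrel present), transcripts quantified by RT-PCR and capillary electrophoresis fluorescence.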

[20] = Tanguay_ZF_120hpf_EYE_legacy: (Legacy) Oregon State University Tanguay Lab 120 Hour Post-fertilization zebrafish Assay for Eye Malformation (AID 2283636);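 note: binary presence or absence of eye malformation scored by brightfield in 120 hpf larvae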
In short: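 Static waterborne exposure of dechorionated zebrafish embryos (strain Tropical 5D), 6 to 120 hpf, sealed plates at 28C, 0.64% DMSO vehicle. Eye malformation is scored as a binary endpoint, with gain of signal analysed relative to DMSO.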

CC(C)c1ccccc1N
outcome [1]: inactive

CC(C)(C)c1n[nH]c(=S)n(N)c1=O
AC50 [1]: inconclusive: 16500 nM

CC(C)(C)C1CCC(=O)CC1
AC50 [1]: inconclusive: 53.1 nM

C[C@]12CC[C@@H]3c4ccc(O)cc4CC[C@H]3[C@@H]1C[C@@H](O)[C@@H]2O
AC50 [2]: active: 30.6 nM | AC50 [3]: inconclusive: 100 nM

C=CC(=O)OCCCCCC
AC50 [4]: inconclusive: 5000 nM

O=C(O)CC(O)C(=O)O (configuration not stated)
AC50 [5]: inconclusive: 25 µM | AC50 [6]: inconclusive: 25 µM | outcome [7]: inactive

S=C(S)NCCNC(=S)S.[Mn+2].[S-]C([S-])=NCCN=C([S-])[S-].[Zn+2]
AC50 [8]: active: 683 nM and active: 1.49 µM | AC50 [9]: active: 1.64 µM and active: 1.94 µM | AC50 [5]: active: 408 nM and active: 399 nM | AC50 [10]: active: 830 nM and active: 1.81 µM | AC50 [6]: active: 419 nM and active: 26.1 nM | AC50 [11]: active: 1.47 µM and inconclusive: 200 nM | outcome [12]: inactive | AC50 [13]: inconclusive: 12.5 µM and active: 12.5 µM | outcome [13]: inactive | outcome [14]: inactive | AC50 [15]: inconclusive: 2.73 nM | AC50 [16]: inconclusive: 0.109 nM

CC(C)[C@@H]1CC[C@@H](C)CC1=O
outcome [12]: inactive

O=C(O)c1cc(N=Nc2ccc(S(=O)(=O)Nc3ccccn3)cc2)ccc1O
AC50 [9]: inconclusive: 6.24 µM | AC50 [10]: inconclusive: 25 µM | outcome [6]: inactive | AC50 [11]: inconclusive: 25 µM | outcome [17]: inactive

CC[N+](CC)(CC(=O)Nc1c(C)cccc1C)Cc1ccccc1 (tested in a mixture with another compound)
outcome [14]: inactive

S=C([S-])NCCNC(=S)[S-].[Mn+2]
AC50 [8]: active: 1.05 µM | AC50 [9]: active: 0.606 µM | AC50 [5]: active: 0.468 µM | AC50 [10]: active: 0.831 µM | AC50 [11]: inconclusive: 0.0537 µM | AC50 [18]: inconclusive: 25500 nM | AC50 [15]: inconclusive: 0.0988 nM

C[C@]12CC[C@@H]3c4ccc(O)cc4CC[C@H]3[C@@H]1CCC2=O
outcome [4]: inactive | AC50 [13]: inconclusive: 3.12 µM | AC50 [19]: inconclusive: 160 nM

O=C(CCCN1CCC(O)(c2ccc(Cl)cc2)CC1)c1ccc(F)cc1
AC50 [18]: active: 5660 nM | AC50 [20]: active: 4960 nM | outcome [15]: inactive

C=CC[N+](C)(C)CC=C
AC50 [4]: inconclusive: 25000 nM
